From patent US20190350933A1
These are yes or no findings as the source states them, for the method shown. For part of these data: Binding seen in cells or lysates may run through a third protein. Some binding calls cover weakened binding; strength is not graded here.

The chains behind the UniProt entries cited, without tags or fusion partners. Residues count along the entry.
UniProt P40763, residues 2-770: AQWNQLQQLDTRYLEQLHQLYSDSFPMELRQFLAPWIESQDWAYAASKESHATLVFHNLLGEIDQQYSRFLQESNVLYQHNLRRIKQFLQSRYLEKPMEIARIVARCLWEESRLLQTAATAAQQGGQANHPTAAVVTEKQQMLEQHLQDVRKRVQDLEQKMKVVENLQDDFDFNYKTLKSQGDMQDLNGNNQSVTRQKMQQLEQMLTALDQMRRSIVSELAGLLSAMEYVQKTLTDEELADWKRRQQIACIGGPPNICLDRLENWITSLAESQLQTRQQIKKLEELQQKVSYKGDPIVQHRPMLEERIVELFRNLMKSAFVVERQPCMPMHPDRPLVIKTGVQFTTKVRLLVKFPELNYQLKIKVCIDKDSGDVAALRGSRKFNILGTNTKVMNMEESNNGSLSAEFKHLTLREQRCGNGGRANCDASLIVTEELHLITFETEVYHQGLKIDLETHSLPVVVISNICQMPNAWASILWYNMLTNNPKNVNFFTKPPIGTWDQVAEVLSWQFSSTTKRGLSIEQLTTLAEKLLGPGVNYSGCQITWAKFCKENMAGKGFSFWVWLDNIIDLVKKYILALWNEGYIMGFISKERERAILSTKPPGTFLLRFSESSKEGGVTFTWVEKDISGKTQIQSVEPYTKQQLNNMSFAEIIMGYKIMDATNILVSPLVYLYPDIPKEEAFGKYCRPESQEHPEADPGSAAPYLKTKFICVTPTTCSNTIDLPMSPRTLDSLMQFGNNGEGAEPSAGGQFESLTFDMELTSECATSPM

Columns and labels:
STAT3 [1] = target: STAT3 (UniProt P40763); experiment: co-immunoprecipitation (summary of results)
STAT3 [2] = target: STAT3 (UniProt P40763); experiment: subcellular fractionation followed by immunoprecipitation, Western blot
STAT3 [3] = target: STAT3 (UniProt P40763); experiment: co-immunoprecipitation from subcellular fractions of HCC cells, Western blot

Measured: binding

B1: SLC29A2 (protein, UniProt Q14542 1-456, looked up)
chain: MARGDAPRDSYHLVGISFFILGLGTLLPWNFFITAIPYFQARLAGAGNSTARILSTNHTGPEDAFNFNNWVTLLSQLPLLLFTLLNSFLYQCVPETVRILGSLLAILLLFALTAALVKVDMSPGPFFSITMASVCFINSFSAVLQGSLFGQLGTMPSTYSTLFLSGQGLAGIFAALAMLLSMASGVDAETSALGYFITPCVGILMSIVCYLSLPHLKFARYYLANKSSQAQAQELETKAELLQSDENGIPSSPQKVALTLDLDLEKEPESEPDEPQKPGKPSVFTVFQKIWLTALCLVLVFTVTLSVFPAITAMVTSSTSPGKWSQFFNPICCFLLFNIMDWLGRSLTSYFLWPDEDSRLLPLLVCLRFLFVPLFMLCHVPQRSRLPILFPQDAYFITFMLLFAVSNGYLVSLTMCLAPRQVLPHEREVAGALMTFFLALGLSCGASLSFLFKALL
modifications: N-glycosylation sites at residue 48 and residue 57
binds: all assays above
